No constants are given. Whether binding was seen depends on the method and setting. For part of these data: Binding seen in cells or lysates may run through a third protein. Some entries that bind do so weakly or less than the wild type.
T1: NF-κB p50 (mouse (endogenous in MEFs)), P25799
T1 chain: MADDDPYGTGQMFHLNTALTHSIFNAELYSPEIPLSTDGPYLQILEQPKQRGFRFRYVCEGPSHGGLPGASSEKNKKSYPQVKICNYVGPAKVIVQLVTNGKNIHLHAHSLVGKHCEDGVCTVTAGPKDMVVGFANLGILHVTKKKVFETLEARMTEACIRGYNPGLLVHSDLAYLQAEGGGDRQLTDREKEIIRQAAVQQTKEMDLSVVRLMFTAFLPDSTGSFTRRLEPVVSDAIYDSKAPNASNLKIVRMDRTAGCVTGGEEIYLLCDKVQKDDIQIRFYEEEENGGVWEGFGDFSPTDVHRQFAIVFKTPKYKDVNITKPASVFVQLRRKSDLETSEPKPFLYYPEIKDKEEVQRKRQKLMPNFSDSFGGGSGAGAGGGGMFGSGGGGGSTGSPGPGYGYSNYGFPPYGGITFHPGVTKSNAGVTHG

Sequences of proteins named here, by UniProt entry; tags and fusion partners are left off.
UniProt O88522: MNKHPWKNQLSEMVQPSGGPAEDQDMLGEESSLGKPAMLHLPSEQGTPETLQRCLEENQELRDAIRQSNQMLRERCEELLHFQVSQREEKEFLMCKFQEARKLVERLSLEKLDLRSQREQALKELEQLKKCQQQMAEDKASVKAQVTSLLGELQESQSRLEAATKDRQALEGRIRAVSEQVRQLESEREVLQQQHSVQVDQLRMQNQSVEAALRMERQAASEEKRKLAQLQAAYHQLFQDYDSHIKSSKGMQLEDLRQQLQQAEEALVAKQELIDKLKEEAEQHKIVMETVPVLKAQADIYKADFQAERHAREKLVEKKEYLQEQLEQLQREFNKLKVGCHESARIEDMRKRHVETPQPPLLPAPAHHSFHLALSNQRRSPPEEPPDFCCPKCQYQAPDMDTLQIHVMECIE


How the values were obtained:
[1] = molecular target: IKKγ (NEMO) (mouse (endogenous in MEFs)) (UniProt O88522); test: co-IP; IKK complex immunoprecipitated with anti-IKKγ antibody from extracts of IRE1+/+ and ire1-/- MEFs; input, depleted and IP fractions blotted for IKKα, IKKβ and IKKγ (Figure 3E); the same IP from cytoplasmic extracts of WT MEFs (untreated, Tg, DTT, TNFα) depleted IKKα (Figure 1E)
[2] = molecular target: T1, NF-κB p50 (mouse (endogenous in MEFs)), …; test: native gel or EMSA; supershift EMSA: nuclear extracts (MEFs, 5 hr DTT or Tg; CHO cells, 2 hr sample) with 32P-labelled NF-κB site probe, antibodies against p65 and/or p50 added for 1 hr on ice at 4°C, 5% non-denaturing polyacrylamide gel; conditions: remark: other sources report otherwise

Binder | binding [1] | binding [2]
IKKα (protein, UniProt Q60680 1-745) MERPPGLRPGAGGPWEMRERLGTGGFGNVSLYQHRELDLKIAIKSCRLELSSKNRERWCHEIQIMKKLDHANVVKACDVPEELNFLINDVPLLAMEYCSGGDLRKLLNKPENCCGLKESQILSLLSDIGSGIRYLHENKIIHRDLKPENIVLQDVGGKTIHKIIDLGYAKDVDQGSLCTSFVGTLQYLAPELFENKPYTATVDYWSFGTMVFECIAGYRPFLHHLQPFTWHEKIKKKDPKCIFACEEMTGEVRFSSHLPQPNSLCSLIVEPMESWLQLMLNWDPQQRGGPIDLTLKQPRCFALMDHILNLKIVHILNMTSAKIISFLLPCDESLHSLQSRIERETGINTGSQELLSETGISLDPRKPASQCVLDGVRGCDSYMVYLFDKSKTVYEGPFASRSLSDCVNYIVQDSKIQLPIIQLRKVWAEAVHYVSGLKEDYSRLFQGQRAAMLSLLRYNANLTKMKNTLISASQQLKAKLEFFRKSIQLDLERYSEQMTYGISSEKMLKAWKEMEEKAIHYSEVGVIGYLEDQIMSLHTEIMELQKSPYGRRQGDLMESLEQRAIDLYKQLKHRPPDHLYSDSTEMVKIIVHTVQSQDRVLKELFGHLSKLLGCKQKIIDLLPKVEVALSNIKEADNTVMFMQGKRQKEIWHLLKIACTQSSARSLVGSSLEGTVTPPVSAWLPPTLADREHPLTCVVTPQDGETLAQMIEENLNCLGHLSTIIREANEDQSSSLMSLDWSWLAE | binds | 
IKKβ (protein, UniProt O88351 1-757) MSWSPSLPTQTCGAWEMKERLGTGGFGNVIRWHNQATGEQIAIKQCRQELSPKNRNRWCLEIQIMRRLNHPNVVAARDVPEGMQNLAPNDLPLLAMEYCQGGDLRRYLNQFENCCGLREGAVLTLLSDIASALRYLHENRIIHRDLKPENIVLQQGEKRLIHKIIDLGYAKELDQGSLCTSFVGTLQYLAPELLEQQKYTVTVDYWSFGTLAFECITGFRPFLPNWQPVQWHSKVRQKSEVDIVVSEDLNGAVKFSSSLPFPNNLNSVLAERLEKWLQLMLMWHPRQRGTDPQYGPNGCFRALDDILNLKLVHVLNMVTGTVHTYPVTEDESLQSLKTRIQENTGILETDQELLQKAGLVLLPDKPATQCISDSKTNEGLTLDMDLVFLLDNSKINYETQITPRPPPESVSCILQEPKRNLSFFQLRKVWGQVWHSIQTLKEDCNRLQQGQRAAMMSLLRNNSCLSKMKNAMASTAQQLKAKLDFFKTSIQIDLEKYKEQTEFGITSDKLLLAWREMEQAVEQCGRENDVKHLVERMMALQTDIVDLQRSPMGRKQGGTLDDLEEQARELYRKLREKPRDQRTEGDSQEMVRLLLQAIQSFEKKVRVIYTQLSKTVVCKQKALELLPKVEEVVSLMNEDERTVVRLQEKRQKELWNLLKIACSKVRGPVSGSPDSMNVSRLSHPGQLMSQPSSACDSLPESDKKSEELVAEAHALCSRLESALQDTVKEQDRSFTTLDWSWLQMEDEERCSLEQACD | binds | 
NF-κB p65 (RelA), Q04207 1-549 (protein) MDDLFPLIFPSEPAQASGPYVEIIEQPKQRGMRFRYKCEGRSAGSIPGERSTDTTKTHPTIKINGYTGPGTVRISLVTKDPPHRPHPHELVGKDCRDGYYEADLCPDRSIHSFQNLGIQCVKKRDLEQAISQRIQTNNNPFHVPIEEQRGDYDLNAVRLCFQVTVRDPAGRPLLLTPVLSHPIFDNRAPNTAELKICRVNRNSGSCLGGDEIFLLCDKVQKEDIEVYFTGPGWEARGSFSQADVHRQVAIVFRTPPYADPSLQAPVRVSMQLRRPSDRELSEPMEFQYLPDTDDRHRIEEKRKRTYETFKSIMKKSPFNGPTEPRPPTRRIAVPTRNSTSVPKPAPQPYTFPASLSTINFDEFSPMLLPSGQISNQALALAPSSAPVLAQTMVPSSAMVPLAQPPAPAPVLTPGPPQSLSAPVPKSTQAGEGTLSEALLHLQFDADEDLGALLGNSTDPGVFTDLASVDNSEFQQLLNQGVSMSHSTAEPMLMEYPEAITRLVTGSQRPPDPAPTPLGTSGLPNGLSGDEDFSSIADMDFSALLSQISS |  | binds

From PMC3482226
